The target in the experiment is androgen receptor (UniProt P10275). The experiment is described as follows: co-IP; cells lysed in IP lysis buffer with protease inhibitors; 500 µg lysate incubated overnight with 5 µg AR antibody (Abcam) and Protein G Dynabeads; beads washed three times with IP lysis buffer; immunoblot; cells treated with 100 nM CBPD-409 (p300/CBP degrader) compared with control.

Protein sequences, listed by entry. Tags and fused reporters are not part of them.
UniProt P10275: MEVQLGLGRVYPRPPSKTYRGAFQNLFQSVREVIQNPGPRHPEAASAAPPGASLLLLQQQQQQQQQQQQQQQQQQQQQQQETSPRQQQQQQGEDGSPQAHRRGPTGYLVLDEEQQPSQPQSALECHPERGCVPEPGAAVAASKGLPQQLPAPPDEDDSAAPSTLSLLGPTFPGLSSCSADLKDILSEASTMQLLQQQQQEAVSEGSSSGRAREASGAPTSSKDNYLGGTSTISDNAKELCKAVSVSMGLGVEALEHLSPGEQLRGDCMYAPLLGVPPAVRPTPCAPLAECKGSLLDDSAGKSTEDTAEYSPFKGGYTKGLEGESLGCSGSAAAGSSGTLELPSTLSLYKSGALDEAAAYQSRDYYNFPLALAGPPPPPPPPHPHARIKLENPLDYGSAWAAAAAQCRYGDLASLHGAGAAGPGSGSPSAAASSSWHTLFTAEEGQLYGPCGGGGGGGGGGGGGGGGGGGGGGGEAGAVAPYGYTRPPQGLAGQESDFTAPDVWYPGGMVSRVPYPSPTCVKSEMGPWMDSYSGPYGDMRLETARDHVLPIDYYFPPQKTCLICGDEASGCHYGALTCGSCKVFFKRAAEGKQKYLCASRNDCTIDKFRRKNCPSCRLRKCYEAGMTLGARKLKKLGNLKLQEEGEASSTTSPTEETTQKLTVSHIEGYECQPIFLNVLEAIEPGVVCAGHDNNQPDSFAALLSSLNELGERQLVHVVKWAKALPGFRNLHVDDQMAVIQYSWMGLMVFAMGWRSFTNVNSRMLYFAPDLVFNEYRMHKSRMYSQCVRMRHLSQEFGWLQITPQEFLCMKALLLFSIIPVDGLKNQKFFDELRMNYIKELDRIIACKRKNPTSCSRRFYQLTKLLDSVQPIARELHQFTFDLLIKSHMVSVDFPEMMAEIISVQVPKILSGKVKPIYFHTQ
UniProt O15379: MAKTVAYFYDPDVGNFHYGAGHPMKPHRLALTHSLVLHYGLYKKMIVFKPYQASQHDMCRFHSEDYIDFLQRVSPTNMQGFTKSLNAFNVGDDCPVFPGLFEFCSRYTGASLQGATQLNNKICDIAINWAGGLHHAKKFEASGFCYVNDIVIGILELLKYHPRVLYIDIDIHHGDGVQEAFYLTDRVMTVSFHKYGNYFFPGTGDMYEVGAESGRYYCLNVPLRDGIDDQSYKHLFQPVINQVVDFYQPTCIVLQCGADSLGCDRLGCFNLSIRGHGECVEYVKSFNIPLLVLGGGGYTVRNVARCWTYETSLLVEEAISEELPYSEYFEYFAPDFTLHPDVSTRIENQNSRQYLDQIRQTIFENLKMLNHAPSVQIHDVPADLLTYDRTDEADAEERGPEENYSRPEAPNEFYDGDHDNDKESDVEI

No constants are given. Whether binding was seen depends on the method and setting. Binding seen in cells or lysates may run through a third protein. Some entries that bind do so weakly or less than the wild type.

With “histone deacetylase 3 (from UniProt O15379 1-428)”, the binding result is reported as “binds”.

The values above are taken from article PMC12513837.
